The other results are listed elsewhere or left out.
B1: il10ra_site1_sap_16_mot_HHH_b2_07758_000000036_0001_41_55_H_._HHH_b2_03545_0001_0000200025_0000001_0_0001 (protein)
chain: SSSSSDEEERIEELLEELEKVLEEGDTERAVRIALEAVQLAIQNGDEEALQLVWKIFQNNSSSSS
B2: il10ra_site1_sap_23_mot_HHH_b1_00531_af2_000000024_0001_1_19_H_._HHH_b1_06468_af2_0001_0000200012_0000001_0_0001 (protein)
chain: SSSSSELEEEAEELLEKARELIENGNPEEASRVLYEAARLAIEAGDDELWQKIIELFVRASSSSS
B3: il10ra_site1_normal_mot_HHH_b2_00984_000000042_0001_1_20_H_._HHH_b2_02851_af2_0001_0000400020_0000002_0 (protein)
chain: SSSSSSDLEELEEELRELIERGDREEALRVAAEAVRFAFRLGDEEALQELWELIRSLESSSSSSS
B4: il10ra_site1_normal_mot_HHH_b2_02354_af2_000000157_0001_40_56_H_._HHH_b1_00899_af2_0001_0000400015_0000001_0 (protein)
chain: SSSSSENLEWIFKTLEELAKQLGNPELLERIEELREEAKEKNDDRLLSEAVELVLKEARKSSSSS
B5: il10ra_site1_normal_mot_HHH_b2_04680_000000215_0001_1_16_H_._HHH_b2_04874_af2_0001_0000300006_0000001_0 (protein)
chain: SSSSSDTEKSREAYELLREAFHIPDEEEVEKLLEEALRLAEEANDFALAFAIRLAEQSLRSSSSS
B6: il10ra_site1_sap_11_mot_HHH_b2_01447_af2_000000258_0001_1_20_H_._HHH_b2_06908_af2_0001_0000100001_0000002_0_0001 (protein)
chain: SSSSNDEVYRLLQELIELVKEGDDEEFRRLYEEIERLIEELGDWVMRFSLEFLHRDFEANKSSSS
B7: il10ra_site1_normal_mot_HHH_b1_08711_000000278_0001_1_16_H_._HHH_b1_01996_af2_0001_0000200012_0000001_0 (protein)
chain: SSSSDEELQEALELVQRAIKLAARGDPEEARKLLEEAAELARELGDERLLRIIEELLRALSSSSS
B8: il10ra_site1_sap_11_mot_HHH_b1_05370_000000138_0001_1_16_H_._HHH_b2_03593_0001_0000300029_0000001_0_0001_af2pred_0001 (protein)
chain: SSSSSQELIREVRELLERARELLEEGDEEELEEILERLRELYEETGDFVVEVAVEAIERLRSSSS
B9: il10ra_site1_normal_mot_HHH_b2_00984_000000042_0001_1_20_H_._HHH_b2_01216_af2_0001_0000100003_0000001_1 (protein)
chain: SSSSDEEVRKLIEEAEELEERGDPRRAIEVLARASSLALQLGDAELLQEIWELIHKLKELSSSSS
B10: il10ra_site1_normal_mot_HHH_b2_01032_000000296_0001_1_18_H_._HHH_b1_04144_af2_0001_0000100001_0000001_1 (protein)
chain: SSSSSDERERLLELLRQAFRLALRGDPEEAREVLEEALELAEELGDERAVRQIRQVLQAQSSSSS
B11: il10ra_site1_sap_27_mot_126ace9b790e630c13bc3545a3f0f279_0001_af2_000000183_0001_15_29_H_._26a4def2a2a508b1712eabbe1612c4d7_0001_0001_0000500038_0000002_0_0001 (protein)
chain: SSSSTEEVYEILRRVLELIANGNLEEAEELLQRAEELAKEEGSFVFRYSVELLQEDVERRSSSSS
B12: il10ra_site1_sap_15_mot_HHH_b2_01447_af2_000000258_0001_1_20_H_._HHH_b1_06982_af2_0001_0000100006_0000002_0_0001_af2pred_0001 (protein)
chain: SSSSSEEEVRLARRAARLAFRIPDPELSRELLRLARRLLREGDPRLLEELRELIEEIEERLSSSS
B13: il10ra_site1_normal_mot_HHH_b1_06057_000000129_0001_22_38_H_._HHH_b2_05766_0001_0000200026_0000001_0 (protein)
chain: SSSSDRTARWSVEFALRVAEELAKRDPERARELLEHLAELLKEARDEELLEEVERLLEEIGSSSS
B14: il10ra_site1_normal_mot_HHH_b1_02464_000000069_0001_1_19_H_._HHH_b2_01682_0002_0000300019_0000002_0 (protein)
chain: SSSSSSDLEELIEEVEELIERNDEEKAIEVLQRLVRLAFRLSDERADRAIIELARLIASSSSSSS
B15: il10ra_site1_sap_22_mot_HHH_b2_03328_af2_000000127_0001_1_19_H_._HHH_b1_06177_0001_0000200023_0000001_0_0001 (protein)
chain: SSSSTQELYELLRRIVELDHKGNLEEAERLLEELEELARERNDPNIRMQVEFLEEIIRRNLSSSS
B16: il10ra_site1_normal_mot_8756ee2cf497b5429c717dfc0c0bcfd6_0001_000000186_0001_1_13_H_._HHH_b2_07310_af2_0001_0000500024_0000001_0 (protein)
chain: SSSSDEELEELYELIRRAAELLHEGNPEEARKLIEEAEKLAEELGNDVAKEQLKYLERVANSSSS
B17: il10ra_site1_normal_mot_HHH_b2_07731_000000003_0001_42_56_H_._HHH_b2_03545_0001_0000200024_0000001_0_af2pred_0001 (protein)
chain: SSSSDEVEERVEELLEEAKELNEKGNPREALKLIREAHEIASKNNDPEALKLVLKLLKELFSSSS
B18: il10ra_site1_normal_mot_HHH_b2_01235_000000294_0001_1_18_H_._HHH_b1_06388_0001_0000100001_0000001_0 (protein)
chain: SSSSDEREVYELSERISELDQEGDIERAEELLEEAERIAEELGNLNMLAVLEFLREILERNSSSS
B19: il10ra_site1_normal_mot_HHH_b1_08176_000000188_0001_1_20_H_._HHH_b1_00383_af2_0001_0000200007_0000001_0 (protein)
chain: SSSSDEENQQALELSKEAFRLLLRGNPEEAEKLLEEALELAERGGNERLARVIRELLQAIKSSSS
B20: il10ra_site1_sap_12_mot_HHH_b1_08593_000000040_0001_43_57_H_._HHH_b1_08417_0001_0000300011_0000001_0_0001_af2pred_0001 (protein)
chain: SSSSDEEIEERVEELLERAKRVSEEEAQELLLEAAELAIKLGDDELLEEILRVWIEILEKSSSSS
B21: il10ra_site1_normal_mot_HHH_b1_07380_000000129_0001_1_20_H_._HHH_b1_05236_0001_0000300044_0000001_0 (protein)
chain: SSSSSEEVYKLSREALELLAEGNPEEAEEVLEQARRLAEELGDRVTLFNVRHILEDIERERSSSS
B22: il10ra_site1_normal_mot_HHH_b2_00984_000000042_0001_1_20_H_._HHH_b2_01291_0001_0000200005_0000001_0 (protein)
chain: SSSSDVEEEVEELLREAEEAFRQGDEEEAARLLLEATQLAIENNNPELLQEVWRVIRELGSSSSS
B23: il10ra_site1_normal_mot_HHH_b2_03220_af2_000000223_0001_23_40_H_._HHH_b1_06300_0001_0000100001_0000001_1 (protein)
chain: SSSSTEEVWKLIREALELLAEGNPEEARKVLEEAREIAEEENNELLEIQLEFLLKDIEELSSSSS
B24: il10ra_site1_normal_mot_HHH_b2_02053_af2_000000006_0001_3_19_H_._HHH_b2_00480_af2_0001_0000100003_0000003_0 (protein)
chain: SSSSNEAEEVYRILRKVLEARARGNPEEAEELLEEAHRIAEESGNRALLFVVRHLLEDLKASSSS
B25: il10ra_site1_sap_21_mot_HHH_b2_03117_000000257_0001_1_18_H_._HHH_b1_00484_af2_0001_0000100001_0000001_0_0001 (protein)
chain: SSSSDEEELAQLTHELVELYRNGDEERAEEVAERIAELARELGNRLAAWLAEMMLRILERGSSSS
B26: il10ra_site1_sap_24_mot_HHH_b1_05937_af2_000000262_0001_20_37_H_._HHH_b2_03447_af2_0001_0000600015_0000002_0_0001 (protein)
chain: SSSSSSDLEELLEELEELLEEGNLEEALELAKELLHLAIQNGDEEILQAVWRLIKRATSSSSSSS
B27: il10ra_site1_normal_mot_HHH_b1_07768_000000240_0001_18_35_H_._HHH_b1_07377_0001_0000600043_0000001_0 (protein)
chain: SSSSTLEWSVKFALRSARILAKEDPERAKEQLEKALKHVRQAGNEELREEIEELIEELESSSSSS
B28: il10ra_site1_normal_mot_HHH_b1_02131_000000111_0001_1_18_H_._HHH_b1_01799_0001_0000300022_0000001_0 (protein)
chain: SSSSDQEVLELAIRALRLAFRLNDPEAVQLVHELLKRYFEEGDEKYREELEELLEELEKRSSSSS
B29: il10ra_site1_sap_18_mot_HHH_b1_03121_af2_000000121_0001_21_37_H_._HHH_b2_08293_0001_0000400020_0000001_0_0001 (protein)
chain: SSSSSSEVEELIREAEEAAKEQGDRAARAVLEKLQELLENGEISEELAKIQAKLILMMLGSSSSS
B30: il10ra_site1_sap_24_mot_HHH_b2_02933_000000199_0001_1_19_H_._HHH_b1_00824_0001_0000100001_0000002_0_0001 (protein)
chain: SSSSSDEEVEELLEEAKELAEEGDPRKAIKVLAEAVRLAIHNGDKEALQAVWRLVEELARSSSSS
B31: il10ra_site1_sap_18_mot_HHH_b2_03425_000000200_0001_22_39_H_._HHH_b1_04958_af2_0001_0000100003_0000001_0_0001 (protein)
chain: SSSSSDEEEERIEELLEEAKEVTDHEEVLRILFEAVHLAIRISNPELLHEIWRLIQKLASSSSSS
B32: il10ra_site1_normal_mot_HHH_b1_08477_000000091_0001_40_57_H_._HHH_b2_05760_af2_0002_0000200005_0000001_0 (protein)
chain: SSSDEEAEEAARRILESAQRAEELGDPELAKQALRFAAALARYAGDPELLEEIERLLEELGSSSS
B33: il10ra_site1_sap_19_mot_HHH_b1_03333_000000091_0001_1_17_H_._HHH_b1_05619_af2_0001_0000100002_0000001_0_0001 (protein)
chain: SSSSDETQEVYELLREVVELHHEGNPEEAREVLREALELAQELGNWTFRMQAEYLERLINSSSSS
B34: il10ra_site1_sap_22_mot_HHH_b1_01585_000000217_0001_1_18_H_._HHH_b2_04160_af2_0001_0000200006_0000001_0_0001 (protein)
chain: SSSSSSDEVEELLEEAKELAEKGNPEEALELLQRAVRLAIRAKDPELLQEVWEVVKRLSSSSSSS
B35: il10ra_site1_normal_mot_HHH_b2_06752_000000207_0001_1_21_H_._HHH_b2_00819_af2_0001_0000200016_0000001_0_af2pred_0001 (protein)
chain: SSSSDAREKALRLALEALEIAVRLGDEEAVKRALRLIEHLARLLNDEEAQEIVEEVKEELSSSSS
B36: il10ra_site1_sap_19_mot_HHH_b2_03438_af2_000000049_0001_18_34_H_._HHH_b2_00028_af2_0001_0000700019_0000001_0_0001 (protein)
chain: SSSSSDAVHRVYELLREAMEALANGNPEEARELLEEAEELLEENNNKAMLVLIEWLQKRVSSSSS
B37: il10ra_site1_normal_mot_HHH_b1_02997_000000220_0001_39_52_H_._HHH_b1_04543_af2_0001_0000100002_0000001_0_af2pred_0001 (protein)
chain: SSSSDNREILKIIREAAEARHRGDPEEAEELVEEAVRLAEEEGNKLALVIARFLLKDIRQGSSSS

Biological target: il10ra, Q13651
Assay: yeast display titration

Apparent Kd, inactive:
B1 no binding seen, B2 no binding seen, B3 no binding seen, B4 no binding seen, B5 no binding seen, B6 no binding seen, B7 no binding seen, B8 no binding seen, B9 no binding seen, B10 no binding seen, B11 no binding seen, B12 no binding seen, B13 no binding seen, B14 no binding seen, B15 > 1760 nM, B16 no binding seen, B17 no binding seen, B18 no binding seen, B19 no binding seen, B20 no binding seen, B21 no binding seen, B22 no binding seen, B23 no binding seen, B24 no binding seen, B25 > 1120 nM, B26 no binding seen, B27 no binding seen, B28 no binding seen, B29 no binding seen, B30 no binding seen, B31 no binding seen, B32 no binding seen, B33 no binding seen, B34 no binding seen, B35 no binding seen, B36 no binding seen, B37 no binding seen

Source: PMC10163288
